Results on 16 molecules are retold here after patent US7998987B2, “Inhibitors of c-Met and uses thereof” (Vertex Pharmaceuticals Incorporated, priority 2005, dated 2011).

Sequences of proteins named here, by UniProt entry; tags and fusion partners are left off. Residues count along the entry.
UniProt P08581, 25-1390 limits assumed: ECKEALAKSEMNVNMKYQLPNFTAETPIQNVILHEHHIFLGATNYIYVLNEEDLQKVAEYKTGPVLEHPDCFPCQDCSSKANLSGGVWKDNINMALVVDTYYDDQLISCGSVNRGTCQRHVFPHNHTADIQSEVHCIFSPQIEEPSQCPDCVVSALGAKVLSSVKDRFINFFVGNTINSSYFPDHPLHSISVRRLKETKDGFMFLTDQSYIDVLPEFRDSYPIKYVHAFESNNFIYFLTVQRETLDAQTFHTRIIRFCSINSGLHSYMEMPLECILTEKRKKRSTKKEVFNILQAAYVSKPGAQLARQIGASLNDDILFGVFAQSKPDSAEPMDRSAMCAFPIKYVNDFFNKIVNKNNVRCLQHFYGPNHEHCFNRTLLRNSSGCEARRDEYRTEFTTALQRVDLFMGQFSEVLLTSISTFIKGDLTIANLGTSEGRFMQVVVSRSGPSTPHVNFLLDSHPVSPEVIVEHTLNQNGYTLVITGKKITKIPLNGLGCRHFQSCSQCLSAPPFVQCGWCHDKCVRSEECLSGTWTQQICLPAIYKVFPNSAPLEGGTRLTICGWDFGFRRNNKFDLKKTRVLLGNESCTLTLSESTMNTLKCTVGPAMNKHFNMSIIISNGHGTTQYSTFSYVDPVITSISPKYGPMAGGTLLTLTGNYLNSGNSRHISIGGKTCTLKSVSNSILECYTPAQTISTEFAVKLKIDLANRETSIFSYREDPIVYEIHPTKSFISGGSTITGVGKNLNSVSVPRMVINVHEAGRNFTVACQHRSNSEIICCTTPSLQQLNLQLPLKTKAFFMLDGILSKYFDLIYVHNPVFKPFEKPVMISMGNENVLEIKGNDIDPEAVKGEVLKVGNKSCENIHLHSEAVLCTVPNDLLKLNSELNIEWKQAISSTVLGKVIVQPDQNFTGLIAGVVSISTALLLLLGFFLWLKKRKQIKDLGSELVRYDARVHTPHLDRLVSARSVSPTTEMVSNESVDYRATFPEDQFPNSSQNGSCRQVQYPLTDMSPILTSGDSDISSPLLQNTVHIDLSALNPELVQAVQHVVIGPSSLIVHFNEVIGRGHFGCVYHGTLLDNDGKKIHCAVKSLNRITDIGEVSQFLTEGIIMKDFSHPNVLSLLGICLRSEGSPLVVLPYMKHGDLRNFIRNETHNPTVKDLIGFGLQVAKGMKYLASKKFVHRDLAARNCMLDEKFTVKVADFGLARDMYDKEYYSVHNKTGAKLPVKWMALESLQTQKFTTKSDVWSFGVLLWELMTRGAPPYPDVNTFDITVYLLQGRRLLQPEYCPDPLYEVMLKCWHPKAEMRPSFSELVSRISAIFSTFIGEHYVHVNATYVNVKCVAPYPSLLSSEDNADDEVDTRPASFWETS

SMILES strings stand for the structures. Structures were worked out from names or drawings and are uncertain. Some results are limits rather than exact numbers.

Broadly, the Ki is the equilibrium dissociation constant of an inhibitor or competing ligand from its target.

The assay concerns the target c-Met (Homo sapiens, UniProt P08581). Nature of the assay: Ki determination for the inhibition of c-Met kinase activity (standard coupled enzyme system). The note with it: read-out: c-Met Ki, 200 μM ATP, 10 μM polyGluTyr, 80 nM c-Met, 30° C.

For the molecule `Fc1ccc(Nc2nn3c(Cc4ccc5c(c4)OCO5)nnc3s2)cc1Cl`, the inhibition constant Ki was less than 0.1 µM.
Next, `C[C@H](c1ccc(O)cc1)c1nnc2sc(Nc3ccc(F)c(Cl)c3)nn12`: less than 0.1 µM.
With `Cc1cccc(Nc2nn3c(Cc4ccc5c(c4)OCO5)nnc3s2)c1`, the inhibition constant (Ki) is less than 0.1 µM.
Turning to `Cc1cccc(Nc2nn3c(Cc4cccc(O)c4)nnc3s2)c1`, the Ki is 0.1 to 2 µM.
Next, `COc1ccc(C(C)c2nnc3sc(Nc4ccc(Cl)cc4)nn23)cc1` (stereo not shown): less than 0.1 µM; `Oc1ccc(Cc2nnc3sc(Nc4cccc(C(F)(F)F)c4)nn23)cc1F`: less than 0.1 µM.
`Cc1cccc(Nc2nn3c(Cc4ccc(O)c(F)c4)nnc3s2)c1`: the inhibitory constant (Ki) is less than 0.1 µM.
Next, `Cc1cccc(Nc2nn3c(Cc4ccc(O)c(Cl)c4)nnc3s2)c1`: greater than 2 µM.
With `Oc1cccc(CCc2nnc3sc(Nc4cccc(C(F)(F)F)c4)nn23)c1`, the Ki lay in the range of 0.1 to 2 µM.
Next, `C[C@@H](c1ccc(O)cc1)c1nnc2sc(Nc3cccnc3)nn12`: less than 0.1 µM; `Oc1ccc(CCc2nnc3sc(Nc4cccc(C(F)(F)F)c4)nn23)cc1`: less than 0.1 µM.
The result for `Oc1ccc(Cc2nnc3sc(Nc4ccc(F)c(Cl)c4)nn23)cc1` reads 0.1 to 2 µM; that for `Oc1ccc(Cc2nnc3sc(Nc4cccc(C(F)(F)F)c4)nn23)cc1Cl`, 0.1 to 2 µM.
For `Cc1cccc(Nc2nn3c(CCc4ccc(O)cc4)nnc3s2)c1`, the Ki fell in the range of 0.1 to 2 µM.
With `CC(c1ccc(O)cc1)c1nnc2sc(Nc3cccc(C(F)(F)F)c3)nn12` (stereo not shown) [Compound 138], the Ki is less than 0.1 µM.
Next, `FC(F)(F)c1cccc(Nc2nn3c(Cc4ccc5c(c4)OCO5)nnc3s2)c1`: less than 0.1 µM.
